Reference: the supplement of paper PMC4604168 (melanoma cell lines)
This is one part of the list. Single values are uncertain, as repeats are few or missing.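 The apoptosis fraction was the count of cleaved-PARP antibody-stained nuclei relative to all DNA-stained nuclei, imaged in 1,536-well plates. Screening doses were set so most cells survived, and baseline and induced cleaved-PARP levels vary greatly across cell lines.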

Each molecule was assayed on CBRC017 (line from a melanoma biopsy) (assay: cleaved PARP positive nuclei fraction relative to DMSO control; melanoma cells; higher = more apoptosis). Conditions: library dose: low library concentration; 72 h.

Row | SMILES | cleaved PARP positive nuclei fraction [%]
1 | O=C(Nc1cccc(Cl)c1)Nc1ncc(CCNc2ncnc3ccsc23)s1 + COc1ccc(-c2ccc3c(N4CCOCC4)nc(N4C[C@@H](C)O[C@@H](C)C4)nc3n2)cc1CO [KU0063794] (first compound 0.0008 µM, partner dose 0.02 µM) | 82.5
2 | Cc1nc(Nc2ncc(C(=O)Nc3c(C)cccc3Cl)s2)cc(N2CCN(CCO)CC2)n1 [dasatanib] + CCN(CC)CCCCNc1ncc2cc(-c3cc(OC)cc(OC)c3)c(NC(=O)NC(C)(C)C)nc2n1 [PD173074] (first compound 0.004 µM, partner dose 0.1 µM) | 82.4
3 | CC1(C)NC(=O)N(c2ccc([N+](=O)[O-])c(C(F)(F)F)c2)C1=O [nilutamide] + COc1ccc(COc2ccc(Cc3cnc(N)nc3N)cc2OC)cc1 [GW2580] (first compound 1 µM, partner dose 1 µM) | 106
4 | COCC[n+]1c2c(n(Cc3cnccn3)c1C)C(=O)c1ccccc1C2=O + CCc1ccc(CCOc2ccc(CC3SC(=O)NC3=O)cc2)nc1 [pioglitazone] (first compound 0.0004 µM, partner dose 2 µM) | 78.1
5 | O=C(CCCCCCC(=O)Nc1ccccc1)NO [vorinostat] + COc1ccc(-c2ccc3c(N4CCOCC4)nc(N4C[C@@H](C)O[C@@H](C)C4)nc3n2)cc1CO [KU0063794] (first compound 0.08 µM, partner dose 0.02 µM) | 85.8
6 | COc1cc(Nc2ncc(F)c(Nc3ccc4c(n3)NC(=O)C(C)(C)O4)n2)cc(OC)c1OC [Tamatinib] + O=S(=O)(c1ccccc1)N(CC(F)(F)F)c1ccc(C(O)(C(F)(F)F)C(F)(F)F)cc1 [T0901317] (first compound 0.4 µM, partner dose 1.4 µM) | 89.9
7 | NC(=O)Nc1cc(-c2cccc(F)c2)sc1C(=O)N[C@H]1CCCNC1 + O=S(=O)(c1ccccc1)N(CC(F)(F)F)c1ccc(C(O)(C(F)(F)F)C(F)(F)F)cc1 [T0901317] (first compound 0.02 µM, partner dose 1.4 µM) | 187
8 | Cn1nnc2c(C(N)=O)ncn2c1=O [temozolomide] + COc1ccc(-c2ccc3c(N4CCOCC4)nc(N4C[C@@H](C)O[C@@H](C)C4)nc3n2)cc1CO [KU0063794] (first compound 2 µM, partner dose 0.02 µM) | 69.6
9 | Nc1cccc2c1CN(C1CCC(=O)NC1=O)C2=O (configuration not stated) [lenalidomide] + c1cc(-c2cnn3cc(-c4ccc(OCCN5CCCCC5)cc4)cnc23)ccn1 [Dorsomorphin] (first compound 1 µM, partner dose 0.4 µM) | 176
10 | Cn1cncc1[C@@](N)(c1ccc(Cl)cc1)c1ccc2c(c1)c(-c1cccc(Cl)c1)cc(=O)n2C [tipifarnib] + c1cc(-c2cnn3cc(-c4ccc(OCCN5CCCCC5)cc4)cnc23)ccn1 [Dorsomorphin] (first compound 0.01 µM, partner dose 0.4 µM) | 167
11 | Cc1cc(N2CCOCC2)cc2[nH]c(-c3c(NC[C@@H](O)c4cccc(Cl)c4)cc[nH]c3=O)nc12 + Cn1cc(/C=C2\C(=O)Nc3cccnc32)c2ccccc21 [GW441756] (first compound 0.2 µM, partner dose 0.4 µM) | 81.3
12 | Cn1c(Nc2ccc(C(F)(F)F)cc2)nc2cc(Oc3ccnc(-c4ncc(C(F)(F)F)[nH]4)c3)ccc21 + Oc1nc(-c2ccc(C(F)(F)F)cc2)nc2c1CSCC2 [XAV939] (first compound 0.08 µM, partner dose 2 µM) | 46.1
13 | Cn1nnc2c(C(N)=O)ncn2c1=O [temozolomide] + CC(C)CCN1c2nc(Nc3cc(F)c(O)c(F)c3)ncc2N(C)C(=O)C1C [BID1870] (first compound 2 µM, partner dose 0.2 µM) | 140
14 | C[C@]1(c2nc3c(C(N)=O)cccc3[nH]2)CCCN1 [Veliparib] + O=C(O)C(=O)Nc1sc2c(c1C(=O)O)CCNC2 [TCS401] (first compound 1.4 µM, partner dose 1.66667 µM) | 175
15 | O=C(Nc1cccc(Cl)c1)Nc1ncc(CCNc2ncnc3ccsc23)s1 + COc1cc2ncnc(Nc3ccc(Oc4ccccc4)cc3)c2cc1OC [SrcI1] (first compound 0.0008 µM, partner dose 2 µM) | 163
16 | NC(=O)Nc1cc(-c2cccc(F)c2)sc1C(=O)N[C@H]1CCCNC1 + O=c1cc(-c2cccc3c2Sc2ccccc2S3)oc(N2CCOCC2)c1 [KU55933] (first compound 0.02 µM, partner dose 1 µM) | 91.3
17 | CC(C)(C)c1cnc(CSc2cnc(NC(=O)C3CCNCC3)s2)o1 + N#Cc1c(O)c2c(-c3ccc(-c4ccccc4O)cc3)csc2[nH]c1=O [A769662] (first compound 0.01 µM, partner dose 2 µM) | 78.5

As entered above.
O=C(Nc1cccc(Cl)c1)Nc1ncc(CCNc2ncnc3ccsc23)s1 + COc1ccc(-c2ccc3c(N4CCOCC4)nc(N4C[C@@H](C)O[C@@H](C)C4)nc3n2)cc1CO [KU0063794] (first compound 0.0008 µM, partner dose 0.02 µM) – cleaved PARP positive nuclei fraction [%]: 82.5
O=C(Nc1cccc(Cl)c1)Nc1ncc(CCNc2ncnc3ccsc23)s1 + COc1cc2ncnc(Nc3ccc(Oc4ccccc4)cc3)c2cc1OC [SrcI1] (first compound 0.0008 µM, partner dose 2 µM) – cleaved PARP positive nuclei fraction [%]: 163
